Source: article PMC8366450
Results are given in words; binding and its absence hold for the method and conditions named. Some results given as binding are weak or reduced against the parent protein; the word gives no strength.

How the values were obtained:
Experiment in all cases: peptide or protein array; HuProt v3.1 human proteome microarray; >20 000 human recombinant proteins immobilised on the array; purified His-V5-CPPED1 applied; both purified
[1] = molecular target: T1, Apoptosis inhibitor 5 (human) (UniProt Q9BZZ5)
T1 sequence: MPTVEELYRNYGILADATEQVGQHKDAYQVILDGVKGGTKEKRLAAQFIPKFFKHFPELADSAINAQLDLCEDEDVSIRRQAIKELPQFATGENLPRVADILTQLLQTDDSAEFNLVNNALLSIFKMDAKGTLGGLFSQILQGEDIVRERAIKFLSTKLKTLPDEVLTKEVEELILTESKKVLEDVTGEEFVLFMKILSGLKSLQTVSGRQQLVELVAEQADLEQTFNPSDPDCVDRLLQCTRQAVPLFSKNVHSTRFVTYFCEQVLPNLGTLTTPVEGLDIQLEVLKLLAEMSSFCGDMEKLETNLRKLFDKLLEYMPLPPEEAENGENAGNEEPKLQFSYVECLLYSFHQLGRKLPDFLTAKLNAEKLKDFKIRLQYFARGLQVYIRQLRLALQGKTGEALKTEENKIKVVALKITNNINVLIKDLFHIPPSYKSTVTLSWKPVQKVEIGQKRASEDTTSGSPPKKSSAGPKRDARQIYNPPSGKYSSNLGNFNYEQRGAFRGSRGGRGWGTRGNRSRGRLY

[2] = molecular target: T2, RNA binding motif protein 42 (human) (UniProt Q9BTD8)
T2 sequence: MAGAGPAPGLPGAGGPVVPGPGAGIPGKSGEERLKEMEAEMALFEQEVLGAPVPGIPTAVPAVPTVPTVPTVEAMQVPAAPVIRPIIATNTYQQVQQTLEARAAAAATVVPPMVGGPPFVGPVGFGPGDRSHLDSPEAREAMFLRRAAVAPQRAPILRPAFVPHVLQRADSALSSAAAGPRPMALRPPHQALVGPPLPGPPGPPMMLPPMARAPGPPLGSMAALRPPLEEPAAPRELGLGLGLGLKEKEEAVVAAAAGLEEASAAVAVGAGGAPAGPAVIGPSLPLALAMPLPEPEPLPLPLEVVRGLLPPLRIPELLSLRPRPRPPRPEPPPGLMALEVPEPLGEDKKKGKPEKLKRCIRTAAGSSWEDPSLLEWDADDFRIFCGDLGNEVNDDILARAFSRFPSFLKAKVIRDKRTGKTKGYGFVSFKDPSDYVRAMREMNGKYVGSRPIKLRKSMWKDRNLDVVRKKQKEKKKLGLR

[3] = molecular target: T3, QKI, KH domain-containing RNA binding (human) (UniProt Q96PU8)
T3 sequence: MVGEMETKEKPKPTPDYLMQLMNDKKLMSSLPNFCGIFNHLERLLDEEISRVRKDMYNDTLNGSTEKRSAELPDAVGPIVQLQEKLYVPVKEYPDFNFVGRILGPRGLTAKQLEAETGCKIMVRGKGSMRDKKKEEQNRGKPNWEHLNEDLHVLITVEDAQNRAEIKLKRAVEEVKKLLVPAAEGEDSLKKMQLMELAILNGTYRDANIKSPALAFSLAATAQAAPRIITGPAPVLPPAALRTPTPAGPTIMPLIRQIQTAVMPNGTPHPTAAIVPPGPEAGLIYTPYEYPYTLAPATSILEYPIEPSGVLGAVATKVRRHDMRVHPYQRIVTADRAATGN

[4] = molecular target: T4, pogo transposable element derived with ZNF domain (human) (UniProt Q7Z3K3)
T4 sequence: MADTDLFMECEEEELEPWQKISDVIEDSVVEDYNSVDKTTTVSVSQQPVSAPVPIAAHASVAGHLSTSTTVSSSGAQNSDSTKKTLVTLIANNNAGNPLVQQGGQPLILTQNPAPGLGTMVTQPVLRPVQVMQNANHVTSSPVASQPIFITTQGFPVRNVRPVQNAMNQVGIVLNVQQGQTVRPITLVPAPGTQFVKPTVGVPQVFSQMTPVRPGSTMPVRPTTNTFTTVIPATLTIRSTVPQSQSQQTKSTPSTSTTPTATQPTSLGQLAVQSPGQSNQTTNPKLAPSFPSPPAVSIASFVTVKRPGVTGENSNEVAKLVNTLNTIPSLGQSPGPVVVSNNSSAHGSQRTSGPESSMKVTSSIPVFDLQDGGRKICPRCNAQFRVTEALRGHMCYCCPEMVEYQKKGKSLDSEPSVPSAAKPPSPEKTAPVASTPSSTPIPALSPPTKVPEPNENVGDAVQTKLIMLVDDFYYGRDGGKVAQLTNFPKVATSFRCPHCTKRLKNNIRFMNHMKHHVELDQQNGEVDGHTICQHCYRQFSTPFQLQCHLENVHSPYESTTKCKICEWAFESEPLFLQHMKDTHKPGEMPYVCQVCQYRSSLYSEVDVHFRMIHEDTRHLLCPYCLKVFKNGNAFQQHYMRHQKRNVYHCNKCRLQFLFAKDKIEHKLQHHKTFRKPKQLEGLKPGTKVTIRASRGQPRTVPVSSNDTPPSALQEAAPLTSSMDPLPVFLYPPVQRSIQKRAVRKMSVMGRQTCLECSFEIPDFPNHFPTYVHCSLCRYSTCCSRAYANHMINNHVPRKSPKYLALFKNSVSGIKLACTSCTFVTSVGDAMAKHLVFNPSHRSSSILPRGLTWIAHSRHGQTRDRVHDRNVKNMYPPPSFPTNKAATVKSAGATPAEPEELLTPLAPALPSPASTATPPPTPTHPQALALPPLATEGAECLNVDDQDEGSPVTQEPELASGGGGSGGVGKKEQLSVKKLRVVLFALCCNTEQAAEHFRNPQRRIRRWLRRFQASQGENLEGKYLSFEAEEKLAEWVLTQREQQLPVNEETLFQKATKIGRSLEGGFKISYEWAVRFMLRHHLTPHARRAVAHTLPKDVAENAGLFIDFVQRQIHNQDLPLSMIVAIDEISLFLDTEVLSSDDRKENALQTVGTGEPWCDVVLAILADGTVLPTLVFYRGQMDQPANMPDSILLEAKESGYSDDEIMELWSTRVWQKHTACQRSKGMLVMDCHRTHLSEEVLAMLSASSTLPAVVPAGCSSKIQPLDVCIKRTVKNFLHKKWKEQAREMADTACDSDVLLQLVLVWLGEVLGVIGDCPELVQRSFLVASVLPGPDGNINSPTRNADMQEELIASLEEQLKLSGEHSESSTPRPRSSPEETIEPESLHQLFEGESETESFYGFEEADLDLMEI

Measured: binding

human recombinant CPPED1 with N-terminal His-V5 dual tag (from UniProt Q9BRF8 1-314) (enzyme)
binds: [1] | [2] | [3] | [4]
